# PubChem BioAssay AID504774 – Drosophila RNAi Screening Center, 2011
# Screen: 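Knock-downs that shift viability of MMS-exposed cells relative to untreated ones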 (primary screen)
# Cells: Drosophila Kc167 cells
# Knock-down reagent: long dsRNA against Drosophila genes, about 0.25 µg dsRNA per well
# Time to read-out: about 6 days: 3 days knock-down, then 3 days with or without MMS
# Treatment: methyl methanesulphonate 0.004% (w/v) for 3 days after knock-down
# Measured: 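ATP-dependent luminescence as a measure of live cells in MMS-exposed wells, quantile normalised within each plate, with replicate values also given as a mean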
# Direction: mean viability with MMS: higher = more surviving cells after MMS
# The deposit covers about 23,000 reagents; below is an unselected part of those that have a named target and a result. 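Values are quantile-normalised luminescence on an arbitrary scale; higher means more cells surviving MMS.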 The numbers tell different reagents against one gene apart. Names joined by + are all predicted targets of the reagent. Not all columns of the deposit are shown.
gene,reagent,mean viability with MMS
tHMG1 (testis-enriched HMG-box-containing protein 1),1,3.45e6
Os-C,1,3.72e6
CG1896,1,3.61e6
ETHR,1,3.61e6
cbc (crowded by cid),1,3.35e6
CG8320 + ATPCL,1,3.79e6
TSG101 (Tumor susceptibility gene 101),1,3.58e6
CG15543,1,3.44e6
Tsp42En (Tetraspanin 42En),1,3.59e6
SPR (Sex peptide receptor),1,3.65e6
SPR (Sex peptide receptor),2,4.10e6
SPR (Sex peptide receptor),3,3.78e6
SPR (Sex peptide receptor),4,3.47e6
TTLL5 (Tubulin tyrosine ligase-like 5),1,3.42e6
Psi (P-element somatic inhibitor),1,3.57e6
DnaJ-H (DnaJ homolog),1,3.66e6
Nmdmc (NAD-dependent methylenetetrahydrofolate dehydrogenase),1,3.61e6
Ist1,1,3.70e6
CG17768 + LSm-4,1,3.38e6
Ir56c (Ionotropic receptor 56c),1,3.72e6
Slimp (Seryl-tRNA synthetase-like insect mitochondrial protein),1,3.54e6
CG33494,1,3.64e6
CG18178,1,3.44e6
COX6AL2 (Cytochrome c oxidase subunit 6A-like 2),1,3.42e6
St1 (Sulfotransferase 1),1,3.55e6
Amy-p (Amylase proximal),1,3.49e6
Rrp6,1,3.19e6
pths (porthos),1,3.34e6
chn (charlatan),1,3.32e6
CG31642,1,3.57e6
CG12923,1,3.63e6
CG9631,1,3.68e6
Set1 (SET domain containing 1),1,3.40e6
Set1 (SET domain containing 1),2,3.28e6
CG31097,1,3.51e6
CG4250,1,3.50e6
Cys (Cystatin-like),1,3.63e6
Hsc70-3 (Heat shock protein 70 cognate 3),1,3.04e6
Acp95EF (Accessory gland protein 95EF),1,3.54e6
l(3)psg2 (lethal (3) persistent salivary gland 2),1,3.46e6
Lim3,1,3.75e6
Lim3,2,3.27e6
Lim3,3,2.81e6
Lim3,4,2.90e6
Lim3,5,3.75e6
Adgf-A2 (Adenosine deaminase-related growth factor A2),1,3.47e6

Targets above whose target name starts with A or a:
gene,reagent,mean viability with MMS
Amy-p (Amylase proximal),1,3.49e6
Acp95EF (Accessory gland protein 95EF),1,3.54e6
Adgf-A2 (Adenosine deaminase-related growth factor A2),1,3.47e6
